In ChEMBL document CHEMBL4513141, “CO-ADD screening of NIH (USA) - Clinical Collection” (2021):
The other results are listed elsewhere or left out. Potency and affinity values are given separately.

What follows are compounds tested on Pseudomonas aeruginosa. Settings: Concentration 20 uM; ASSAY_TEST Inhibition of Bacterial Growth; detection method Absorption (OD600); MEDIA CAMHB; plate type 384well; NBS; CORNING #3640; time 18 hr.
`Cc1ccc(C)c(OCCCC(C)(C)C(=O)O)c1` [GEMFIBROZIL] showed an Inhibition of 4.27%. With `CC(=O)O[C@H]1C[C@@H]2CC[C@@H]3[C@H](CC[C@@]4(C)[C@H]3C[C@H]([N+]3(C)CCCCC3)[C@@H]4OC(C)=O)[C@@]2(C)C[C@@H]1N1CCCCC1.[Br-]` [VECURONIUM BROMIDE] the Inhibition was 6.77%. For `COCCOC(=O)C1=C(C)NC(C)=C(C(=O)OC(C)C)C1c1cccc([N+](=O)[O-])c1` (stereo not drawn) [NIMODIPINE], the Inhibition was 19.21%. In the case of `CCN(CC)CC1CCCCN1CC(=O)N1c2ccccc2C(=O)Nc2cccnc21` (stereo not drawn) [OTENZEPAD], the Inhibition is reported as 36.09%. `Cc1ccc(O)c([C@H](CCN(C(C)C)C(C)C)c2ccccc2)c1.O=C(O)C(O)C(O)C(=O)O` [TOLTERODINE TARTRATE] showed an Inhibition of 10.33%. Work on `C[C@@H]1O[C@@H](OC[C@H]2O[C@@H](Oc3c(-c4ccc(O)c(O)c4)oc4cc(O)cc(O)c4c3=O)[C@H](O)[C@@H](O)[C@@H]2O)[C@H](O)[C@H](O)[C@H]1O` [RUTIN] yielded an Inhibition of 17.85%. For `CC(=O)/N=c1/sc(S(N)(=O)=O)nn1C` [METHAZOLAMIDE], the Inhibition was 8.55%. `CCCc1nc2c(C)cc(-c3nc4ccccc4n3C)cc2n1Cc1ccc(-c2ccccc2C(=O)O)cc1` gave an Inhibition of 38.9%. `C[C@]12CCC(=O)C=C1CC[C@@H]1[C@@H]2[C@@H](O)C[C@@]2(C)[C@H]1CC[C@]2(O)C(=O)COC(=O)CCC(=O)O` [HYDROCORTISONE HEMISUCCINATE ANHYDROUS] showed an Inhibition of 18.29%. For `CC(C)(C)NCC(O)COc1cccc2c1CC(O)C(O)C2` (stereo not drawn) [NADOLOL], the Inhibition was 21.21%. For `CC(=O)NCCCCCCNC(C)=O` [HEXAMETHYLENEBISACETAMIDE], the Inhibition was 3.02%. Work on `Cc1nccn1CC1CCc2c(c3ccccc3n2C)C1=O` (stereo not drawn) [ONDANSETRON] yielded an Inhibition of 13.9%. For `CCCNC(C)C(=O)Nc1ccccc1C.Cl` (stereo not drawn) [PRILOCAINE HYDROCHLORIDE], the Inhibition was 14.94%. In the case of `CN1CCCC(n2nc(Cc3ccc(Cl)cc3)c3ccccc3c2=O)CC1.Cl` (stereo not drawn) [AZELASTINE HYDROCHLORIDE], the Inhibition is reported as 4.91%. `Nc1nnc(-c2cccc(Cl)c2Cl)c(N)n1` [LAMOTRIGINE] showed an Inhibition of 7.8%. `O=c1c(-c2ccccc2)c1-c1ccccc1` [DIPHENCYPRONE] showed an Inhibition of 1.62%. `CC(C)(C)NC(=O)[C@@H]1CN(Cc2cccnc2)CCN1C[C@@H](O)C[C@@H](Cc1ccccc1)C(=O)N[C@H]1c2ccccc2C[C@H]1O.O=S(=O)(O)O` [INDINAVIR SULFATE] showed an Inhibition of 7.97%. In the case of `CC(C)(C)NCC(O)c1ccc(O)c(CO)c1.CC(C)(C)NCC(O)c1ccc(O)c(CO)c1.O=S(=O)(O)O` (stereo not drawn) [ALBUTEROL SULFATE], the Inhibition is reported as 17.29%. For `CCN1CCC[C@H]1CNC(=O)c1cc(S(N)(=O)=O)ccc1OC` [LEVOSULPIRIDE], the Inhibition was 6.68%. In the case of `NC(=O)c1cccnc1` [NIACINAMIDE], the Inhibition is reported as 14.85%. Work on `CCCc1nc(C(C)(C)O)c(C(=O)OCc2oc(=O)oc2C)n1Cc1ccc(-c2ccccc2-c2nnn[nH]2)cc1` [OLMESARTAN MEDOXOMIL] yielded an Inhibition of 33.73%. Compound `CC(=O)[C@@]1(O)CC[C@H]2[C@@H]3C[C@H](C)C4=CC(=O)CC[C@]4(C)[C@H]3CC[C@@]21C` has an Inhibition of 27.35%. In the case of `CCCC1O[C@@H]2C[C@H]3[C@@H]4CCC5=CC(=O)C=C[C@]5(C)[C@H]4[C@@H](O)C[C@]3(C)[C@]2(C(=O)CO)O1` (stereo partly drawn) [BUDESONIDE], the Inhibition is reported as 4.71%. `CC1(C)O[C@@H]2C[C@H]3[C@@H]4C[C@H](F)C5=CC(=O)C=C[C@]5(C)[C@H]4[C@@H](O)C[C@]3(C)[C@]2(C(=O)CO)O1` [FLUNISOLIDE] showed an Inhibition of 20.61%. In the case of `CC(C)(C)C(O)/C=C/c1ccc2c(c1)OCO2` (stereo not drawn) [STIRIPENTOL], the Inhibition is reported as 8.01%. `C[C@]12CC[C@@H]3c4ccc(O)cc4CC[C@H]3[C@@H]1CC[C@@H]2O` [ESTRADIOL] showed an Inhibition of 2.47%. `COc1ccc2cc([C@H](C)C(=O)[O-])ccc2c1.[Na+]` [NAPROXEN SODIUM] showed an Inhibition of 12.66%. `CC(=O)O.NCc1ccc(S(N)(=O)=O)cc1` [MAFENIDE ACETATE] showed an Inhibition of 13.6%. In the case of `C=C1/C(=C\C=C2/CCC[C@]3(C)[C@@H]([C@H](C)/C=C/[C@@H](O)C4CC4)CC[C@@H]23)C[C@@H](O)C[C@@H]1O` [CALCIPOTRIENE], the Inhibition is reported as 13.54%. `C[C@H]1O[C@@H](O[C@H]2[C@@H](O)C[C@H](O[C@H]3[C@@H](O)C[C@H](O[C@H]4CC[C@@]5(C)[C@H](CC[C@@H]6[C@@H]5C[C@@H](O)[C@]5(C)C(C7=CC(=O)OC7)CC[C@]65O)C4)O[C@@H]3C)O[C@@H]2C)C[C@H](O)[C@@H]1O` (stereo partly drawn) gave an Inhibition of 8.24%. `CN(C)CC[C@@H](c1ccc(Cl)cc1)c1ccccn1.O=C(O)/C=C\C(=O)O` [DEXCHLORPHENIRAMINE MALEATE] showed an Inhibition of 16.81%. Compound `CCc1ccc(CCOc2ccc(CC3SC(=O)NC3=O)cc2)nc1.Cl` (stereo not drawn) [PIOGLITAZONE HYDROCHLORIDE] has an Inhibition of 8.48%. `CS(=O)(=O)O.Cc1ccc(NC(=O)c2ccc(CN3CCN(C)CC3)cc2)cc1Nc1nccc(-c2cccnc2)n1` [IMATINIB MESYLATE] was tested, and the Inhibition was 14.33%. With `CCCC(CCC)C(=O)O` [VALPROIC ACID] the Inhibition was 13.05%. `COC1=CC(=O)C[C@@H](C)[C@]12Oc1c(Cl)c(OC)cc(OC)c1C2=O` [GRISEOFULVIN] was tested, and the Inhibition was 21.48%. For `COc1cc(N)c(Cl)cc1C(=O)N[C@@H]1CCN(CCCOc2ccc(F)cc2)C[C@@H]1OC.O` [(R,S)-CISAPRIDE MONOHYDRATE], the Inhibition was 6.11%. `CC1(C)O[C@@H]2[C@@H](CO[C@@]3(COS(N)(=O)=O)OC(C)(C)O[C@@H]23)O1` [TOPIRAMATE] showed an Inhibition of 14.21%. Work on `CCOC(=O)C1=C(C)NC(C)=C(C(=O)OC)C1c1cccc([N+](=O)[O-])c1` (stereo not drawn) [NITRENDIPINE] yielded an Inhibition of 7.78%. With `CC[C@H](C)C(=O)O[C@H]1C[C@@H](C)C=C2C=C[C@H](C)[C@H](CC[C@@H]3C[C@@H](O)CC(=O)O3)[C@H]21` [LOVASTATIN] the Inhibition was 18.99%. `NS(=O)(=O)c1cc2c(cc1C(F)(F)F)NC(Cc1ccccc1)NS2(=O)=O` (stereo not drawn) [BENDROFLUMETHIAZIDE] was tested, and the Inhibition was 4.02%. In the case of `CC(O)CO.N[C@@H](C(=O)N[C@@H]1C(=O)N2C(C(=O)O)=C(CSc3c[nH]nn3)CS[C@H]12)c1ccc(O)cc1`, the Inhibition is reported as 36.53%. Work on `Cl.Nc1nc2ccc(OC(F)(F)F)cc2s1` yielded an Inhibition of 16.88%. `CCN1CCCC1CNC(=O)c1cc(S(=O)(=O)CC)c(N)cc1OC` (stereo not drawn) [AMISULPRIDE] showed an Inhibition of 24.74%. In the case of `C/C=C1/[C@H]2C=C(C)C[C@]1(N)c1ccc(O)nc1C2`, the Inhibition is reported as 13.6%. Compound `CC(C)c1nc(CN(C)C(=O)N[C@H](C(=O)N[C@@H](Cc2ccccc2)C[C@H](O)[C@H](Cc2ccccc2)NC(=O)OCc2cncs2)C(C)C)cs1` [RITONAVIR] has an Inhibition of 15.52%. `Cl.O.OC[C@H]1O[C@@H](n2cnc3c(N[C@H]4CCC[C@@H]4O)ncnc32)[C@@H](O)C1O` (stereo partly drawn) showed an Inhibition of 12.03%. In the case of `CC(C)[C@H]1CC[C@H](C(=O)N[C@H](Cc2ccccc2)C(=O)O)CC1` [NATEGLINIDE], the Inhibition is reported as 11.33%. `COc1nc(C)nc(Cl)c1NC1=NCCN1.Cl` [MOXONIDINE HYDROCHLORIDE] gave an Inhibition of 5.26%. With `CN1CCC(=C2c3ccccc3CCc3sccc32)CC1.O=C(O)/C=C\C(=O)O` the Inhibition was 21.61%. Compound `CCOC(=O)C1=C(C)NC(C)=C(C(=O)OC)C1c1cccc(Cl)c1Cl` (stereo not drawn) [FELODIPINE] has an Inhibition of 12.75%. `O=C([O-])Cc1ccccc1Nc1c(Cl)cccc1Cl.[Na+]` [DICLOFENAC SODIUM] was tested, and the Inhibition was 8.93%. Work on `CC(=O)OCC(=O)[C@@]1(O)CC[C@H]2[C@@H]3C[C@H](C)C4=CC(=O)C=C[C@]4(C)[C@H]3[C@@H](O)C[C@@]21C` [METHYLPREDNISOLONE ACETATE] yielded an Inhibition of 10.61%. Compound `CCCCC(=O)N(Cc1ccc(-c2ccccc2-c2nnn[nH]2)cc1)[C@H](C(=O)O)C(C)C` has an Inhibition of 30.1%. Compound `CNNCc1ccc(C(=O)NC(C)C)cc1.Cl` [PROCARBAZINE HYDROCHLORIDE] has an Inhibition of 14.26%. With `CC[N+](C)(CC)CCOC(=O)C(O)(c1ccccc1)C1CCCCC1.[Br-]` (stereo not drawn) [OXYPHENONIUM BROMIDE] the Inhibition was 14.05%. `CC(C(=O)[O-])c1ccc(CC2CCCC2=O)cc1.[Na+]` (stereo not drawn) [LOXOPROFEN SODIUM] gave an Inhibition of 2.03%. In the case of `CN(C)[C@@H]1C(=O)C(C(=O)NCN2CCCC2)=C(O)[C@@]2(O)C(O)=C3C(=O)c4c(O)cccc4[C@@](C)(O)C3CC12` (stereo partly drawn), the Inhibition is reported as 20.32%. Compound `O=C1Nc2ccc(Cl)cc2[C@@](C#CC2CC2)(C(F)(F)F)O1` [EFAVIRENZ] has an Inhibition of 7.84%. Work on `C=C[C@H]1CN2CC[C@H]1C[C@@H]2[C@@H](O)c1ccnc2ccc(OC)cc12` [QUINIDINE] yielded an Inhibition of 8.31%. `O=S(=O)([O-])CCS.[Na+]` [MESNA] was tested, and the Inhibition was 6.26%. Compound `C[C@H](CS)C(=O)N1CCC[C@H]1C(=O)O` [CAPTOPRIL] has an Inhibition of 11.48%. Compound `CC(C)(C)NC[C@H](O)COc1nsnc1N1CCOCC1.O=C(O)/C=C\C(=O)O` [TIMOLOL MALEATE] has an Inhibition of 7.23%. In the case of `Cn1nnc2c(C(N)=O)ncn2c1=O` [TEMOZOLOMIDE], the Inhibition is reported as 16.54%.
